Positions count from the first letter of the chain named. Names and notes keep the numbering of the source. No constants are given. Whether binding was seen depends on the method and setting. In cells and extracts the contact can be indirect. Some binding calls cover weakened binding; strength is not graded here. Sequences can lack the tags named with a protein.
B1: FLAG-NDFIP2 (wild type) (protein, UniProt Q9NV92 1-336)
chain: MARRRSQRVCASGPSMLNSARGAPELLRGTATNAEVSAAAAGATGSEELPPGDRGCRNGGGRGPAATTSSTGVAVGAEHGEDSLSRKPDPEPGRMDHHQPGTGRYQVLLNEEDNSESSAIEQPPTSNPAPQIVQAASSAPALETDSSPPPYSSITVEVPTTSDTEVYGEFYPVPPPYSVATSLPTYDEAEKAKAAAMAAAAAETSQRIQEEECPPRDDFSDADQLRVGNDGIFMLAFFMAFIFNWLGFCLSFCITNTIAGRYGAICGFGLSLIKWILIVRFSDYFTGYFNGQYWLWWIFLVLGLLLFFRGFVNYLKVRNMSESMAAAHRTRYFFLL
B2: FLAG-NDFIP2 Y151A (protein, UniProt Q9NV92 1-336)
chain: B1 chain with Y151A
B3: FLAG-NDFIP2 Y177A (protein, UniProt Q9NV92 1-336)
chain: B1 chain with Y177A
B4: FLAG-NDFIP2 Y186A (protein, UniProt Q9NV92 1-336)
chain: B1 chain with Y186A
B5: FLAG-NDFIP2 Y151A;Y177A (protein, UniProt Q9NV92 1-336)
chain: B1 chain with Y151A, Y177A

The chains behind the UniProt entries cited, without tags or fusion partners.
UniProt O00308: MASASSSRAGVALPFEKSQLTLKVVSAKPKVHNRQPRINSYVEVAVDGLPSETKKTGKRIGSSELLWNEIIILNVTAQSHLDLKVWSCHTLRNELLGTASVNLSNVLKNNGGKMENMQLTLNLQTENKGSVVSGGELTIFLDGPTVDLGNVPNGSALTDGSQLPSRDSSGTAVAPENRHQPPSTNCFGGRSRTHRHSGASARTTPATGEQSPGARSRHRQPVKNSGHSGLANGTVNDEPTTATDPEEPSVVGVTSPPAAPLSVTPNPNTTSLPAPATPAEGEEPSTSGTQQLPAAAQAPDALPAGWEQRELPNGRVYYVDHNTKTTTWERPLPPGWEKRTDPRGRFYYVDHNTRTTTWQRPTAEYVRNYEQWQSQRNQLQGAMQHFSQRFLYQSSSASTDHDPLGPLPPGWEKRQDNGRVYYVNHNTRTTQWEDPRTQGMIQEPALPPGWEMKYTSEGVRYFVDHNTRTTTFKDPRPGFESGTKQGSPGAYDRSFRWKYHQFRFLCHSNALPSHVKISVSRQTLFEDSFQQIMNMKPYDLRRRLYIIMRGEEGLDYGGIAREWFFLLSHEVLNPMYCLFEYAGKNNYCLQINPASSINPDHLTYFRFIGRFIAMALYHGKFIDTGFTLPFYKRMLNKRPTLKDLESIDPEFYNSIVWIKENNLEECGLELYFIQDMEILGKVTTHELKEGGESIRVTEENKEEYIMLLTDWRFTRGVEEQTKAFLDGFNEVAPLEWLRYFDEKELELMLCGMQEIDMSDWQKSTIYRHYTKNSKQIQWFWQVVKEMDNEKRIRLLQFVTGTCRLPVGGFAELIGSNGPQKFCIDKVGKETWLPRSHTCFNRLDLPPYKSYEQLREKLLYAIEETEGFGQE

Biological target: HA-WWP2 (full length, wild type) (UniProt O00308)
Assay: co-IP; HEK293T (WT or TMEM127-/-) co-transfected; post-nuclear supernatant on anti-HA agarose 2 h at 4 °C (HA-WWP2 as bait); lysis 0.5% Triton-X-100, 150 mM NaCl, 50 mM Tris-Cl pH 7.4, 5 mM EDTA, 5% glycerol; immunoblot

Row | Binder | binding
1 | B1 | binds
2 | B2 | binds
3 | B3 | binds
4 | B4 | binds
5 | B5 | binds

Source: publication PMC12720080
